The name of at least one read-out is uncertain.
Molecular target: T1, Na^+,K^+ -ATPase (Canis lupus familiaris, UniProt P50997)
T1 construct: Na^+,K^+ -ATPase receptor purified according to Jorghensen; from tissue
Experiment: displacement of the specific ^3 H-ouabain binding from the purified Na^+,K^+ -ATPase receptor
Settings: ^3 H-ouabain displacement
From the text: To test the affinity for the receptor site of the Na^+,K^+ -ATPase and the agonist or antagonist activity on the enzyme, the following tests were used: a) displacement of the specific ^3 H-ouabain binding from the Na^+,K^+ -ATPase receptor purified according to Jorghensen (Jorghensen P., BBA, 1974, 356, 36) and Erdmann ( Erdmann E. et al., Arzneim. Forsh., 1984, 34, 1314); b) inhibition of the activity of the purified Na^+,K^+ -ATPase measured as % of hydrolysis of ^32 P-ATP in presence and in absence of the tested compound (Doucet A. et al., Am. J. Physiol., 1986, 251, F851). The ability of these compounds to lower blood pressure in adult hypertensive MHS rats was tested according to the following scheme: systolic blood pressure (SBP) and heart rate (HR) were measured by an indirect tail-cuff method in three-month old hypertensive MHS rats before starting with the treatment (basal values). The rats were then subdivided in two groups of 7 animals each, one receiving the compound and the other, the control group, receiving only the vehicle. The compound was orally daily given, suspended in Methocel 0.5% (w/v), for ten days. SBP and HR were measured daily 6 and 24 hours after the treatment.

In the case of `C[C@]12CC[C@H](OCCOCCN3CCCC3)C[C@@H]1CC[C@@H]1[C@@H]2CC[C@@]2(C)[C@H]1CC[C@@]2(OCCN1CCCC1)c1ccoc1` [Comp. I-an, 3β-(2-(2-(1-Pyrrolidinyl)ethoxy)ethoxy)-17β-(2-(1-pyrrolidinyl)ethoxy)-17α-(3-furyl)-androstane], the “Binding ^3 H-Ouab. Displacement log IC50” value is reported as 6.5.
